{"source": "paper PMC10485894", "about": "“Corticosteroids as Selective and Effective Modulators of Glycine Receptors” (ACS Chemical Neuroscience, 2023)", "key": {"[1]": {"tested_on": "GABA-A receptors (GABAAR)", "test": "GABA-activated chloride current (IGABA), whole-cell patch clamp in isolated cerebellar Purkinje cells", "settings": "2 μM GABA"}, "[2]": {"tested_on": "glycine receptors (GlyR)", "test": "Glycine-activated chloride current (IGly), whole-cell patch clamp in isolated hippocampal pyramidal neurons;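 on all read-outs here: rat CA3 hippocampal pyramidal cells, whole-cell voltage clamp held at −70 mV, steroids tested over 0.01–100 µM, 6–8 cells from 3 animals per mean value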", "settings": "100 μM glycine; for Ipeak Hill coefficient: peak amplitude of IGly; for τdes Hill coefficient: time constant of desensitization of IGly"}}}
{"compound": "C[C@]12CC[C@@H](O)C[C@@H]1CC[C@@H]1[C@@H]2[C@@H](O)C[C@]2(C)[C@@H](C(=O)CO)CC[C@@H]12", "note": "[3α5α-CORT, 3α,11β,21-Trihydroxy-5α-pregnan-20-one]", "values": [{"measurement": "Hill coefficient for potentiation of IGABA", "setting": "[1]", "result": "1.3 ± 0.4"}, {"measurement": "Ipeak Hill coefficient", "setting": "[2]", "result": "0.8 ± 0.2"}, {"measurement": "τdes Hill coefficient", "setting": "[2]", "result": "0.9 ± 0.3"}]}
{"compound": "C[C@]12CC[C@@H](O)C[C@H]1CC[C@@H]1[C@@H]2[C@@H](O)C[C@]2(C)[C@@H](C(=O)CO)CC[C@@H]12", "note": "[3α5β-CORT, 3α,11β,21-Trihydroxy-5β-pregnan-20-one]", "values": [{"measurement": "Hill coefficient for potentiation of IGABA", "setting": "[1]", "result": "1.4 ± 0.6"}, {"measurement": "Ipeak Hill coefficient", "setting": "[2]", "result": "1.3 ± 0.3"}, {"measurement": "τdes Hill coefficient", "setting": "[2]", "result": "1.3 ± 0.5"}]}
{"compound": "C[C@]12CCC(=O)C[C@@H]1CC[C@@H]1[C@@H]2CC[C@]2(C)[C@@H](C(=O)CO)CC[C@@H]12", "note": "[5α-CORT, 21-Hydroxy-5α-pregnane-3,20-dione]", "values": [{"measurement": "Ipeak Hill coefficient", "setting": "[2]", "result": "1.3 ± 0.2"}, {"measurement": "τdes Hill coefficient", "setting": "[2]", "result": "1.1 ± 0.4"}]}
{"compound": "C[C@]12CCC(=O)C[C@H]1CC[C@@H]1[C@@H]2CC[C@]2(C)[C@@H](C(=O)CO)CC[C@@H]12", "note": "[5β-CORT, 21-Hydroxy-5β-pregnane-3,20-dione]", "values": [{"measurement": "normalized charge (Q) of IGly, Hill coefficient", "setting": "[2]", "result": "1.0 ± 0.2"}, {"measurement": "Ipeak Hill coefficient", "setting": "[2]", "result": "1.3 ± 0.3"}, {"measurement": "τdes Hill coefficient", "setting": "[2]", "result": "1.1 ± 0.4"}]}
{"compound": "C[C@]12CCC(=O)C=C1CC[C@@H]1[C@@H]2CC[C@@]2(C)[C@H]1CC[C@]2(O)C(=O)CO", "note": "[11-Deoxycortisol, 17α,21-Dihydroxypregn-4-ene-3,20-dione]", "values": [{"measurement": "Ipeak Hill coefficient", "setting": "[2]", "result": "1.3 ± 0.3"}, {"measurement": "τdes Hill coefficient", "setting": "[2]", "result": "1.3 ± 0.5"}]}
{"compound": "C[C@]12CC[C@H]3[C@@H](CCC4=CC(=O)CC[C@@]43C)[C@@H]1CC[C@@H]2C(=O)CO", "note": "[11-deoxy-CORT, 21-Hydroxypregn-4-ene-3,20-dione]", "values": [{"measurement": "Ipeak Hill coefficient", "setting": "[2]", "result": "1.3 ± 0.4"}, {"measurement": "τdes Hill coefficient", "setting": "[2]", "result": "1.3 ± 0.2"}]}
{"compound": "C[C@]12CC[C@H](O)CC1=CCC1C2CC[C@@]2(C)C1CC[C@]2(O)C(=O)CO", "note": "(stereo partly drawn) [17α,21-diOH-PREG, 3β,17α,21-Trihydroxypregn-5-en-20-one]", "values": [{"measurement": "normalized charge (Q) of IGly, Hill coefficient", "setting": "[2]", "result": "2.1 ± 0.4"}, {"measurement": "Ipeak Hill coefficient", "setting": "[2]", "result": "0.8 ± 0.1"}, {"measurement": "τdes Hill coefficient", "setting": "[2]", "result": "1.3 ± 0.2"}]}
{"compound": "C[C@]12C[C@H](O)[C@H]3[C@@H](CCC4=CC(=O)CC[C@@]43C)[C@@H]1CC[C@@H]2C(=O)CO", "note": "[CORT, 11β,21-Dihydroxypregn-4-ene-3,20-dion]", "values": [{"measurement": "Ipeak Hill coefficient", "setting": "[2]", "result": "0.7 ± 0.1"}, {"measurement": "τdes Hill coefficient", "setting": "[2]", "result": "1.4 ± 0.2"}]}
{"compound": "C[C@]12CCC(=O)C=C1CC[C@@H]1[C@@H]2[C@@H](O)C[C@@]2(C)[C@H]1CC[C@]2(O)C(=O)CO", "note": "[Cortisol, 11β,17α,21-Trihydroxypregn-4-ene-3,20-dione]", "values": [{"measurement": "Ipeak Hill coefficient", "setting": "[2]", "result": "0.9 ± 0.2"}, {"measurement": "τdes Hill coefficient", "setting": "[2]", "result": "1.0 ± 0.3"}]}
{"compound": "C[C@]12CCC(=O)C=C1CC[C@@H]1[C@@H]2C(=O)C[C@@]2(C)[C@H]1CC[C@]2(O)C(=O)CO", "note": "[Cortisone, 17α,21-Dihydroxypregn-4-ene-3,11,20-trione]", "values": [{"measurement": "Ipeak Hill coefficient", "setting": "[2]", "result": "1.3 ± 0.5"}, {"measurement": "τdes Hill coefficient", "setting": "[2]", "result": "1.2 ± 0.5"}]}
